Values quoted from earlier work, collected in patent publication US20230183818A1, “ANTIBIOTIC SUSCEPTIBILITY OF MICROORGANISMS AND RELATED MARKERS, COMPOSITIONS, METHODS AND SYSTEMS” (priority 2018, published 2023).
In brackets after ≈: the same amount, converted by molar mass. For at least one compound, name, drawing or mass did not settle the structure.

Test system: Neisseria gonorrhoeae
Settings: cited from earlier work

Row | Structure (SMILES) | MIC Breakpoint, S (susceptible) [µg/mL] | MIC Breakpoint, I (intermediate) [µg/mL] | MIC Breakpoint, R (resistant) [µg/mL]
1 | C=CC1=C(C(=O)O)N2C(=O)[C@@H](NC(=O)/C(=N\OCC(=O)O)c3csc(N)n3)[C@H]2SC1 [Cefixime] | ≤ 0.25 |  | 
2 | CO[C@@]1(NC(=O)C2SC(=C(C(N)=O)C(=O)O)S2)C(=O)N2C(C(=O)O)=C(CSc3nnnn3C)CS[C@@H]21 (some centres unmarked) [Cefotetan] | ≤2 | 4 (≈ 6.95 µM) | ≥8
3 | CC1COc2c(N3CCN(C)CC3)c(F)cc3c(=O)c(C(=O)O)cn1c23 (centres unmarked) [Ofloxacin] | ≤ 0.25 | 0.5 to 1 | ≥2
4 | CN(C)[C@@H]1C(O)=C(C(N)=O)C(=O)[C@@]2(O)C(O)=C3C(=O)c4c(O)cccc4[C@@](C)(O)[C@H]3C[C@@H]12 [Tetracycline] | ≤ 0.25 | 0.5 to 1 | ≥2
5 | COCC1=C(C(=O)O)N2C(=O)[C@@H](NC(=O)/C(=N\OC)c3csc(N)n3)[C@H]2SC1 [Cefpodoxime] | ≤ 0.5 |  | 
